According to the supplement of paper PMC12823440, “Inhibitors supercharge kinase turnover through native proteolytic circuits” (Nature, 2025):
Structures can show the parent of a compound that is named as a salt. Some of the results follow. Hit calls seldom repeat between salt and free forms of one compound.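 In K562 cells expressing nanoluciferase-fused kinases, luminescence was recorded at 4 h intervals between 2 and 18 h, normalized as percent of control with DMSO at 100% and a positive control at 0%. A significant (2 sigma) signal drop marks a time point as decreased. The authors' rule for a hit is not shown and takes in more than the number of time points.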

Protein sequences, listed by entry. Tags and fused reporters are not part of them. Lines headed by an entry give the natural chain unless they say otherwise; changes in a name come on top.
UniProt Q9Y6E0: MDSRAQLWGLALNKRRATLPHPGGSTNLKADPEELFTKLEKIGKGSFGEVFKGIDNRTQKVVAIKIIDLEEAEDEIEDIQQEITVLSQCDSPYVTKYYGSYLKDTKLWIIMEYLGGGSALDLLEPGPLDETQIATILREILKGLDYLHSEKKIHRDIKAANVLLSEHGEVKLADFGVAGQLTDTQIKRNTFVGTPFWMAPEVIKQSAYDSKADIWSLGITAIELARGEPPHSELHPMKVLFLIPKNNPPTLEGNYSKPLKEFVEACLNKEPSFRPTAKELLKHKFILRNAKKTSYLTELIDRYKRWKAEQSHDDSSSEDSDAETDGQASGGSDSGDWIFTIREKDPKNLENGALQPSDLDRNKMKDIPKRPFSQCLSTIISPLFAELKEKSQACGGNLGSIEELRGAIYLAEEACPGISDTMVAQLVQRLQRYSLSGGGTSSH

The compounds below were run against STK24 (UniProt Q9Y6E0) (assay: kinase-Nluc reporter destabilization hit call (1 = scored as downregulated) (binary); higher = compound decreases kinase abundance). Conditions: 2.5 µM; K562; 2-18 h.

kinase-Nluc reporter destabilization hit call, inactive:
Cc1cccc(-c2[nH]c(CNc3ccccc3F)nc2-c2ccc3ncnn3c2)n1 [Vactosertib] 0, c1cc(-c2cnn3cc(-c4ccc(OCCN5CCCCC5)cc4)cnc23)ccn1 [Dorsomorphin (dihydrochloride)] 0, Oc1cccc(-c2nc(N3CCOCC3)c3oc4ncccc4c3n2)c1 [PI-103 (Hydrochloride)] 0, C=CC(=O)Nc1cc(Nc2nccc(-c3cn(C)c4ccccc34)n2)c(OC)cc1N(C)CCN(C)C [Osimertinib mesylate] 0, CNC(=O)c1cc(Oc2ccc(NC(=O)Nc3ccc(Cl)c(C(F)(F)F)c3)c(F)c2)ccn1 [Regorafenib (monohydrate)] 0, Cc1cccc(-c2[nH]c(CNc3ccccc3F)nc2-c2ccc3ncnn3c2)n1 [Vactosertib (Hydrochloride)] 0, COc1ccc(S(=O)(=O)Nc2ccccc2CN(C)C/C=C/c2ccc(Cl)cc2)cc1 [KN-92 (hydrochloride)] 0, CN(C)C(=O)c1cc2cnc(Nc3ccc(N4CCNCC4)cn3)nc2n1C1CCCC1 [Ribociclib hydrochloride] 0

Same assay, conditions: 10 µM; K562; 2-18 h

kinase-Nluc reporter destabilization hit call, inactive:
CNC(=O)c1ccc(Nc2ncc(C(F)(F)F)c(NCc3nccnc3N(C)S(C)(=O)=O)n2)cc1 [Defactinib (hydrochloride)] 0, C#Cc1cccc(Nc2ncnc3cc4c(cc23)OCCOCCOCCO4)c1 [Icotinib (Hydrochloride)] 0, CNC(=O)c1ccc(Nc2ncc(C(F)(F)F)c(NCc3nccnc3N(C)S(C)(=O)=O)n2)cc1 [Defactinib] 0, N#CCNC(=O)c1ccc(-c2ccnc(Nc3ccc(N4CCOCC4)cc3)n2)cc1 [Momelotinib sulfate] 0, N#CCC1(n2cc(-c3ncnc4[nH]ccc34)cn2)CN(C2CCN(C(=O)c3ccnc(C(F)(F)F)c3F)CC2)C1 [Itacitinib] 0, CC(=O)Nc1cccc(-n2c(=O)n(C3CC3)c(=O)c3c(Nc4ccc(I)cc4F)n(C)c(=O)c(C)c32)c1 [Trametinib] 0, C[C@H](CCC(=O)NCCS(=O)(=O)O)[C@H]1CC[C@H]2[C@@H]3[C@@H](O)C[C@@H]4C[C@H](O)CC[C@]4(C)[C@H]3CC[C@]12C [Tauroursodeoxycholate (sodium)] 0, Cc1cccc(/C=N/Nc2cc(N3CCOCC3)nc(OCCc3ccccn3)n2)c1 [Apilimod (mesylate)] 0, N#CCNC(=O)c1ccc(-c2ccnc(Nc3ccc(N4CCOCC4)cc3)n2)cc1 [Momelotinib] 0, C[S+]([O-])c1ccc(-c2nc(-c3ccc(F)cc3)c(-c3ccncc3)[nH]2)cc1 (centres undefined) 0, COc1cc2c(cc1OC)-c1c(C)c3ccc(OC)c(OC)c3c[n+]1CC2 [Dehydrocorydaline (chloride)] 0, CCCC(=O)Nc1ncnc2c1ncn2[C@@H]1O[C@@H]2COP(=O)(O)O[C@H]2[C@H]1OC(=O)CCC [Bucladesine (sodium)] 0, COc1ccnc(C[S+]([O-])c2nc3cc(-n4cccc4)ccc3[nH]2)c1C (centres undefined) [Ilaprazole] 0, COC(=O)[C@H](CC(C)C)NC(=O)c1ccc(NC[C@@H](N)CS)cc1-c1cccc2ccccc12 0, COc1ncc(F)cc1CNc1ccc(Cc2c[nH]c3ncc(C)cc23)c(F)n1 0, C#Cc1cccc(Nc2ncnc3cc(OCCOC)c(OCCO)cc23)c1 [Desmethyl Erlotinib] 0, Cn1ncc(Cl)c1-c1cc(C(=O)N[C@H](CN)Cc2cccc(F)c2)sc1Cl [Afuresertib] 0, O=C(c1ccc(F)c(F)c1Nc1ccc(I)cc1F)N1CC(O)([C@@H]2CCCCN2)C1 [Cobimetinib (hemifumarate)] 0, COc1cc(/C=C/C(=O)O)ccc1O [Ferulic acid (sodium)] 0, CNc1ncc2cc(-c3ccc(-c4cccc(C)n4)cc3Cl)c(=O)n(C[C@H]3OC[C@H](N)CO3)c2n1 0, COC(=O)[C@H](CC(C)C)NC(=O)c1ccc(NC[C@@H](N)CS)cc1-c1cccc2ccccc12 [GGTI298 (Trifluoroacetate)] 0, Nc1cncc(-c2cn3ccnc3c(Nc3ccc(N4CCN(C5COC5)CC4)cc3)n2)n1 [Lanraplenib (succinate)] 0, CN(C)C(=O)c1cc2cnc(Nc3ccc(N4CCNCC4)cn3)nc2n1C1CCCC1 [Ribociclib] 0, CC(C)NC[C@@H](C(=O)N1CCN(c2ncnc3c2[C@H](C)C[C@H]3O)CC1)c1ccc(Cl)cc1 [Ipatasertib] 0, COc1cc(/C=C/C(=O)O)ccc1O [Ferulic acid] 0, CN(C)C/C=C/C(=O)Nc1cc2c(Nc3ccc(F)c(Cl)c3)ncnc2cc1O[C@H]1CCOC1 [Afatinib] 0
